Laboratory results as given in PubChem BioAssay AID504834 (National Center for Advancing Translational Sciences (NCATS), 2011).
The whole screen tested about 320,000 compounds, of which about 22,000 (6.9%) were called active. Inconclusive means that the source gave no clear call. Such entries were picked first, then a sample of the others. Calls follow the shape of the dose curve; as a rule, active = well fitted inhibition curve with a large enough effect; inconclusive = small, poorly fitted or top-dose-only effect, or another doubt; inactive = no such curve, though single readings can be large or run the other way. A potency beside an inconclusive call is a rough fit, not a confirmed value.

assay: Primary qHTS for delayed death inhibitors of the malarial parasite plastid, 96 hour incubation; details: P. falciparum luciferase reporter growth; series mostly up to 28.7 µM; activity change, negative = inhibition: at the top concentration
Outline: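 Compounds incubated with erythrocytes infected by luciferase-expressing P. falciparum (2% hematocrit, 0.05% parasitemia final) for 96 hours, 37 C in 5% CO2. Growth inhibition scored as decreased luciferase luminescence.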
% is scaled to controls: 0 for no effect and ±100 for the full control effect; potency is read from the fitted curve at half-maximal effect.

| SMILES | activity change, negative = inhibition | Potency |
| --- | --- | --- |
| CCC(=O)Nc1ccc2nc(C3CC3)n(Cc3ccccc3)c(=O)c2c1 | inactive: -18.6% | – |
| CC(=O)c1cccc(NS(=O)(=O)c2cc(OCC(N)=O)c(C)cc2Cl)c1 | – | inconclusive: 0.165 µM [inhibitor, partial curve, poor fit] |
| O=C(c1ccc(N2CCCCC2)c([N+](=O)[O-])c1)N(Cc1ccccc1)c1ccccn1 | – | inconclusive: 10.4 µM [inhibitor, single point] |
| O=C(c1cccc2c1-c1ccccc1/C2=N/O)N1CCCCC1 | – | inconclusive: 18.5 µM [inhibitor, single point] |
| COc1cccc(N2CC(C(=O)Nc3nnc(SCC(=O)c4ccccc4)s3)CC2=O)c1 (centres undefined) | – | inconclusive: 5.86 µM [inhibitor, partial curve, poor fit] |
| COc1ccc(CNC(=O)C2CC(c3ccccc3[N+](=O)[O-])=NO2)cc1 (centres undefined) | inactive: 35.7% | – |
| COc1cccc(NC(=O)c2oc3ccccc3c2NC(=O)C(C)(C)C)c1 | inactive: -2.28% | – |
| O=C(NCCOc1ccccc1)c1ccccc1Cl | inactive: 20.4% | – |
| COc1cc(C2NC(=O)NC(C)=C2C(=O)OC2CCC(C)CC2)ccc1O (centres undefined) | – | active: 2.62 µM |
| CCN1CCS/C1=C\C=C\C1=[N+](CC)CCS1 | inactive: 62.8% | – |
| COc1ccc(OC)c(CCNC(=O)c2ccc(CS(=O)Cc3cccc(Cl)c3)o2)c1 (centres undefined) | – | active: 4.15 µM |
| COc1ccc(-n2c(SCC(=O)Nc3ccccc3OC)nc(O)c(Cc3ccccc3)c2=O)cc1 | – | inconclusive: 10.4 µM [inhibitor, single point] |
| CCOc1ccc(NC(=O)Cn2nc(-c3ccccc3Cl)n(CC)c2=S)cc1 | – | inconclusive: 14.7 µM [inhibitor, single point] |
| Cc1nnc(NC(=O)CCSc2ccccc2)s1 | – | inconclusive: 11.7 µM [inhibitor, single point] |
| Cc1cc(C)nc(NC(N)=NC(C)c2ccccc2)n1 (centres undefined) | – | inconclusive: 13.1 µM [inhibitor, single point] |
| CN(CCc1ccccn1)C(=O)CCC1CCCN(C(=O)CN2CCCCCC2)C1 (centres undefined) | inactive: 74.3% | – |
| CCOC(=O)C1(CCCc2ccccc2)CCN(Cc2cnn(C)c2)CC1 | – | inconclusive: 6.57 µM [inhibitor, partial curve] |
| COc1ccc(C2=NOC3(CC(=O)N(c4ccc(F)cc4)C3=O)C2)c(OC)c1 (centres undefined) | – | inconclusive: 18.5 µM [inhibitor, single point] |
| CCN(c1ccccc1C)S(=O)(=O)c1cc2c3c(c1)CCC(=O)N3CCC2 | inactive: -2.7% | – |
| COC(CN(C)C(=O)C1CCCN(S(=O)(=O)c2ccc3c(c2)oc(=O)n3C)C1)OC (centres undefined) | – | inconclusive: 14.7 µM [inhibitor, single point] |
| CCN(CC(=O)NCCc1ccccc1)S(=O)(=O)c1ccc(C)cc1 | inactive: 4.36% | – |
| O=C(C1CCCN(S(=O)(=O)c2cc(Cl)ccc2Cl)C1)N1CCOCC1 (centres undefined) | – | inconclusive: 18.5 µM [inhibitor, single point] |
| Cc1cc(NC(=O)CSc2cn(CCNC(=O)c3ccc(Cl)cc3)c3ccccc23)no1 | inactive: -60.5% | – |
| Cc1ccccc1C(=O)N/N=C/c1ccc([N+](=O)[O-])s1 | – | active: 2.08 µM |

| SMILES | activity change, negative = inhibition | Potency |
| --- | --- | --- |
| COc1cc(OC)c(NC2c3ccccc3C(=O)N2c2cc(C)ccn2)cc1Cl (centres undefined) | – | active: 11.7 µM |
| CCC(=O)Nc1sc2c(c1C#N)CCC2 | – | inconclusive: 18.5 µM [inhibitor, single point] |
| CC(=O)NC1C(Oc2ccc3c(C)cc(=O)oc3c2)OC(COC(C)=O)C(OC(C)=O)C1OC(C)=O (centres undefined) | inactive: -11.7% | – |
| O=C(c1ccco1)c1cn(CC(=O)N2CCCc3ccccc32)c2ccccc12 | inactive: -7.83% | – |
| CCCn1nc(C(=O)Nc2ccc3nc(N4CCOCC4)sc3c2)ccc1=O | – | inconclusive: 7.38 µM [inhibitor, partial curve] |
| CCC(=O)NC(Cc1ccccc1)c1ccc2c(c1)OCCCO2 (centres undefined) | – | inconclusive: 8.28 µM [inhibitor, partial curve, poor fit] |
| CCOc1ccccc1NC(=O)c1cccc(NC(=O)C2CCCC2)c1 | – | inconclusive: 14.7 µM [inhibitor, single point] |
| O=C(CN1CCCc2ccccc21)N/N=C/c1c(O)ccc2ccccc12 | – | inconclusive: 4.15 µM [inhibitor, single point] |
| COc1ccc(OCCCn2ccnc2)cc1 | inactive: -20.9% | – |
| C=CCn1c(SCC(=O)NC(N)=O)nnc1-c1cc2c(s1)CCC(CC)C2 (centres undefined) | inactive: -4.75% | – |
| Cc1ccc(SCc2nc3ccccc3n2CC(=O)Nc2ccc(Cl)cc2)cc1 | – | inconclusive: 0.0738 µM [inhibitor, full curve, poor fit] |
| O=Cc1cn(Cc2ccccc2[N+](=O)[O-])c2ccccc12 | – | inconclusive: 14.7 µM [inhibitor, partial curve, poor fit] |
| CCOC(=O)c1c(NC(=O)CSc2nc3ccccc3o2)sc(C(C)=O)c1C | inactive: 49.1% | – |
| Clc1ccc(-c2csc(N3CCCCCC3)n2)cc1 | – | inconclusive: 8.28 µM [inhibitor, partial curve] |
| CC12CCC(C(=O)Nc3ccccc3)(C(Br)C1=O)C2(C)C (centres undefined) | – | inconclusive: 2.33 µM [inhibitor, partial curve] |
| O=C(CSCc1ccc(F)cc1)N1CCOCC1 | inactive: 91.1% | – |
| O=C(OCc1ccccn1)c1ccc(COc2ccccc2Cl)o1 | – | inconclusive: 0.0738 µM [inhibitor, full curve, poor fit] |
| Fc1cccc(CNc2ncnc3ccc(-c4ccccc4Cl)cc23)c1 | – | active: 2.08 µM |
| Cc1[nH]nc2c1C(c1cc(Br)cs1)C(C#N)=C(N)O2 (centres undefined) | – | inconclusive: 11.7 µM [inhibitor, partial curve, poor fit] |
| O=C(c1cccnc1)N1CCc2ccccc2C1 | – | inconclusive: 18.5 µM [inhibitor, single point] |
| COc1ccccc1NC(=O)C(C)OC(=O)CC1CCCCC1 (centres undefined) | – | inconclusive: 10.4 µM [inhibitor, single point] |
| Cc1cc(C)nc(SCCn2c(N3CCC(C)CC3)nc3c2c(=O)n(C)c(=O)n3C)n1 | – | active: 2.33 µM |
| N#CCCn1[nH]c(-c2ccccc2)cc1=O | – | inconclusive: 18.5 µM [inhibitor, single point] |
| COc1ccc(C2=NCCn3c2c2ccc(C(F)(F)F)cc2[n+]3[O-])cc1 | inactive: 22.2% | – |
| CC1(C)C(O)=C(c2nc3ccccc3[nH]2)C(=N)N1c1ccccc1 | – | active: 8.28 µM |

| SMILES | activity change, negative = inhibition | Potency |
| --- | --- | --- |
| N#Cc1ccc(CN2CCN(CC(=O)NCCc3ccc(Cl)cc3Cl)CC2)cc1 | inactive: -7.83% | – |
| O=C(Nc1cc(Cl)cc(Cl)c1)c1cccc(OC(F)F)c1 | – | inconclusive: 14.7 µM [inhibitor, single point] |
| Cn1c(=O)oc2cc(S(=O)(=O)N3CCCC(C(=O)Nc4ccccn4)C3)ccc21 (centres undefined) | – | inconclusive: 8.28 µM [inhibitor, partial curve, poor fit] |
| NC(=O)C1CC(=O)N(c2ccc(OCc3ccccc3Cl)cc2)C1 (centres undefined) | – | inconclusive: 2.94 µM [inhibitor, full curve] |
| O=C(N/N=C/c1cn(-c2ccccc2)nc1-c1ccc(F)cc1)c1ccc2c(c1)OCO2 | – | active: 13.1 µM |
| CCN(C(=O)COC(=O)c1ccccc1SCC(=O)NC1CCCCCCC1)C1CCS(=O)(=O)C1 (centres undefined) | inactive: -7.65% | – |
| O=C(CCCN1C(=O)NC2(CCCC2)C1=O)NCc1ccccc1 | inactive: 12.9% | – |
| Cc1cc(=O)[nH]c(SCC(=O)Nc2nc(-c3ccccc3)cs2)n1 | – | inconclusive: 4.15 µM [inhibitor, partial curve, poor fit] |
| CC(C)C(=O)Nc1ccc(N2CCCC2)cc1 | – | active: 4.15 µM |
| N=c1c2c3c(sc2ncn1CCN1CCOCC1)CCCCC3 | – | inconclusive: 11.7 µM [inhibitor, partial curve, poor fit] |
| Cc1ccccc1NC(=O)CCN1CCN(C/C=C/c2ccccc2)CC1 | – | inconclusive: 11.7 µM [inhibitor, single point] |
| Cc1ccc(NC(=O)CN(C)C(=O)c2cc(-c3ccco3)nc3ccccc23)cc1 | – | inconclusive: 8.28 µM [inhibitor, partial curve, poor fit] |
| O=C(Nc1ccc(Br)cn1)C1CCCN1S(=O)(=O)c1ccccc1 (centres undefined) | inactive: 2.1% | – |
| O=C(CN1CCCCCC1)Nc1cccc2c1OCO2 | – | active: 1.04 µM |
| CCOC(=O)c1cn(CC(=O)Nc2cccc(Cl)c2C)nn1 | inactive: -91.9% | – |
| COC(=O)c1ccc(CN(c2ccccc2OC)S(=O)(=O)c2cccs2)o1 | – | inconclusive: 18.5 µM [inhibitor, single point] |
| COc1cc(/C=C/C(=O)OCC(=O)Nc2cc(C)on2)ccc1OCC#N | inactive: 34.9% | – |
| CCC(NC(=O)CCl)c1ccc(C)cc1 (centres undefined) | – | active: 1.31 µM |
| N#CCCn1c(-c2nonc2NC(=O)c2ccccc2Cl)nc2ccccc21 | inactive: -56.7% | – |
| CCOc1ccc(CCNC(=O)COC(=O)c2ccc(Br)o2)cc1OCC | – | inconclusive: 2.08 µM [inhibitor, full curve] |
| Cc1ccc(CNC(=O)C23CN(Cc4ccccc4)CC2C(c2cccc([N+](=O)[O-])c2)=NO3)cc1 (centres undefined) | – | inconclusive: 9.28 µM [inhibitor, partial curve] |
| Cn1cc([C@@H]2C[C@H]3CN(Cc4cccc(Cl)c4)C(=O)[C@]34CCCN24)c2ccccc21 | – | inconclusive: 11.7 µM [inhibitor, partial curve, poor fit] |
| Nc1c(C(=O)NC2CC2)sc2nc3c(c(-c4ccco4)c12)CC/C3=C/c1ccco1 | inactive: 87.6% | – |
| N#C/C(=C\c1c(N2CCC(C(N)=O)CC2)nc2ccccn2c1=O)C(=O)NC1CCCCC1 | – | inconclusive: 18.5 µM [inhibitor, single point] |

Single entries from the list.
Potency with `Cc1ccccc1NC(=O)CCN1CCN(C/C=C/c2ccccc2)CC1` reads inconclusive: 11.7 µM [inhibitor, single point]
activity change, negative = inhibition with `COc1cc(/C=C/C(=O)OCC(=O)Nc2cc(C)on2)ccc1OCC#N` reads inactive: 34.9%
Potency with `Cc1ccc(NC(=O)CN(C)C(=O)c2cc(-c3ccco3)nc3ccccc23)cc1` reads inconclusive: 8.28 µM [inhibitor, partial curve, poor fit]
Potency with `Cc1cc(=O)[nH]c(SCC(=O)Nc2nc(-c3ccccc3)cs2)n1` reads inconclusive: 4.15 µM [inhibitor, partial curve, poor fit]
activity change, negative = inhibition with `Nc1c(C(=O)NC2CC2)sc2nc3c(c(-c4ccco4)c12)CC/C3=C/c1ccco1` reads inactive: 87.6%
